Test results: PubChem BioAssay AID1347075 (National Center for Advancing Translational Sciences (NCATS), 2019)
Hit rate of the full screen: of about 400,000 compounds, about 5,500 (1.4%) were called active. Inconclusive results, whose numbers are uncertain, are shown with a selection of clear calls. Calls follow the shape of the dose curve; as a rule, active = well fitted cell-killing curve with a large enough effect; inconclusive = small, poorly fitted or top-dose-only effect, or effect the other way; inactive = flat fitted curve, though single readings scatter. Potencies of inconclusive entries are doubtful fits and often do not repeat.

assay: qHTS assay for MDR1-selective chemotherapeutics: Primary screen using the parental adenocarcinoma cell KB-3-1; details: KB-3-1 viability, CellTiter-Glo ATP luminescence, 72 h; series mostly up to 46.1 µM; also: nearly all actives have a fitted effect of over 60% in size
In short: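 Here the drug-naive KB-3-1 line serves as comparator for MDR sub-line selectivity; cells received compound titrations, 72 h at 37 °C, then CellTiter-Glo readout.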
Potency is read from the fitted curve at half-maximal effect.

SMILES	Potency
COc1cc2c(O)c3c(c(-c4ccc5c(c4)OCO5)c2cc1OC)C(=O)OC3	active: 14.6 µM
O=C(Nc1cc(-c2nc3ncccc3o2)ccc1Cl)c1ccc([N+](=O)[O-])o1	active: 3.66 µM
CCOc1ccc(NC(=O)c2nc(S(=O)(=O)Cc3ccccc3)ncc2Cl)cc1	inconclusive: 29.1 µM [cytotoxic, single point]
Cc1nc2ccccc2n1CCc1nc2c3ccccc3nc(SCC(=O)NCc3ccco3)n2n1	inconclusive: 25.9 µM [cytotoxic, single point]
Cc1ccc(-c2nnc(-c3cccc4ccccc34)o2)cc1	inconclusive: 29.1 µM [cytotoxic, single point]
COc1ccc(CN(C(=O)c2ccco2)c2ccccc2)cc1	inconclusive: 20.6 µM [cytotoxic, single point]
COc1cc(NC(=O)c2ccc(COCC(F)(F)F)o2)cc(OC)c1OC	inconclusive: 20.6 µM [rising, single point]
O=C(c1cccnc1)C1CCCN(Cc2nc(Cc3ccccc3F)no2)C1 (stereo unspecified)	inconclusive: 29.1 µM [rising, single point]
CC(C)N(Cc1nc(-c2ccccc2)no1)C(=O)c1ccc([N+](=O)[O-])cc1	inconclusive: 29.1 µM [cytotoxic, single point]
CCN1CCN(c2c(S(=O)(=O)c3ccc(OC)cc3)cnc3cc(OC)c(OC)cc23)CC1	inconclusive: 16.4 µM [cytotoxic, single point]
COc1ccc(CNC(=O)C2CC(c3ccccc3C(F)(F)F)=NO2)cc1 (stereo unspecified)	inactive
Cn1nc([N+](=O)[O-])nc1Oc1ccc(C(C)(C)C)cc1	inactive
CCN(CC)CCCN(C(=O)c1cccc(C)c1)c1nc(-c2ccc(OC)cc2)cs1	inactive
COc1ccccc1Cc1nc2ccccc2[nH]c1=O	inactive
CCCn1c(N)c(C(=O)CSc2nc3ccccc3s2)c(=O)[nH]c1=O	inconclusive: 14.6 µM [cytotoxic, partial curve]
CCOCCCNC(=O)C1CCC(CNS(=O)(=O)c2ccc(NC(C)=O)cc2)CC1 (stereo unspecified)	inconclusive: 0.0041 µM [rising, full curve]
Cc1cc(Cl)c(OCCn2ccnc2)c(Br)c1	inactive
Cc1ccc(C)c(CN2C(=O)c3ccccc3S(=O)c3ccc(C(=O)NCc4ccccc4)cc32)c1 (stereo unspecified)	inactive
CCCS(=O)(=O)c1ncc(Cl)c(C(=O)Nc2scc(-c3ccccc3)c2C(=O)OCC)n1	inconclusive: 29.1 µM [cytotoxic, single point]
CC(C)c1nc2oc3c(NCc4ccccn4)ncnc3c2c2c1COC(C)(C)C2	inactive
CCn1c(=O)c2c(nc(SCc3ccccn3)n2C)n(C)c1=O	inconclusive: 20.6 µM [rising, single point]
CC(=O)C[C@@H](O)CC(=O)[C@@H]1OC(=O)[C@H](C)C/C=C\Cc2ccccc21	inactive
COCCNc1nc(NCCCN2CCCC2=O)c2sc(-c3ccccc3)cc2n1	inactive
Cc1nc(SCC(=O)NCc2ccco2)c2c3c(sc2n1)CCCC3	inconclusive: 25.9 µM [cytotoxic, partial curve, poor fit]

SMILES	Potency
Cc1ccc(OCCCNC2CCCC2)cc1	inactive
O=C(O)c1ccc(NC(=O)C2(c3ccccc3)CCOCC2)cc1	inactive
CC1Cc2nc(SCC(=O)NCC3CCCO3)n(-c3ccccc3)c(=O)c2S1 (stereo unspecified)	inactive
Fc1ccc(F)c(NC(=S)NCCc2ccccc2)c1	inconclusive: 14.6 µM [cytotoxic, partial curve, poor fit]
Cc1cccc(CNc2ccc(S(=O)(=O)N3CCCCC3)cc2)c1	inconclusive: 18.4 µM [cytotoxic, partial curve, poor fit]
COc1ccc(C)cc1-n1nnnc1SCn1nnc2ccccc2c1=O	inconclusive: 20.6 µM [cytotoxic, partial curve, poor fit]
CCc1ccc(/C=C/C(=O)c2cc(Br)ccc(=O)c2O)cc1	inconclusive: 3.26 µM [cytotoxic, partial curve, poor fit]
COc1cc2c(cc1OC)C1CCN3C(=O)CCC3N1CC2 (stereo unspecified)	inactive
CCCC(=O)NCCc1cc2c(C)ccc(C)c2[nH]c1=O	inconclusive: 16.4 µM [rising, partial curve, poor fit]
Cc1ccc(-n2[nH]c3c4c(ccc3c2=O)C(=O)c2ccccc2C4=O)cc1	inactive
CCCCCCSc1ccc([C@@H]2[C@H]3C(=O)N(CC)C(=O)[C@H]3[C@]3(C(=O)OC)CCCCN23)cc1	inconclusive: 25.9 µM [cytotoxic, single point]
Cc1ccccc1OCC(=O)N/N=C/c1cc2ccccc2nc1Cl	inconclusive: 14.6 µM [cytotoxic, partial curve]
C=CCN1C(=O)c2ccc(C(=O)NCCOc3ccccc3F)cc2C1=O	inactive
COc1ccc(C2C3=C(CCCC3=O)N(CC(=O)O)C3=C2C(=O)CCC3)cc1Cl	inactive
COc1cccc(-c2cc(C(=O)Nc3cc(OC)c(OC)c(OC)c3)on2)c1	active: 9.2 µM
Clc1ccc(-c2cc(-c3nnc4n3CCCCC4)c3ccccc3n2)cc1	inconclusive: 29.1 µM [cytotoxic, partial curve, poor fit]
CC(C)(C)OC(=O)N1CCCN(C(c2ccnc3ccccc23)c2nnnn2-c2ccc3c(c2)OCCO3)CC1 (stereo unspecified)	inconclusive: 29.1 µM [cytotoxic, single point]
COc1ccc(C(=O)CC2(O)C(=O)N(Cc3ccccc3Cl)c3ccccc32)cc1 (stereo unspecified)	inconclusive: 13 µM [cytotoxic, partial curve]
Cn1nc(C(=O)N2CCN(S(=O)(=O)c3ccc(Cl)cc3)CC2)c2ccccc2c1=O	inactive
CCn1cc(C(=O)NCc2cccnc2)c(=O)c2cc(F)c(N3CCN(C(=O)c4ccco4)CC3)cc21	inconclusive: 11.6 µM [cytotoxic, partial curve]
CCO[C@@H]1OC(C(=O)NCc2nc3ccccc3[nH]2)=C[C@H](C(C)(C)C)[C@H]1CCCO	active: 1.3 µM
O=C(CCCCCn1c(SCc2ccncc2)nc2ccccc2c1=O)NCc1ccco1	inactive
COc1cccc(C(C)(O)c2nc(-c3cccc(C(F)(F)F)c3)cs2)c1 (stereo unspecified)	inactive
COc1cc(/C=C2\C(=O)N(C)C(=S)N2C)ccc1O	inconclusive: 29.1 µM [rising, single point]

Copied from the entries so far for reference:
SMILES	Potency
COc1ccc(C(=O)CC2(O)C(=O)N(Cc3ccccc3Cl)c3ccccc32)cc1 (stereo unspecified)	inconclusive: 13 µM [cytotoxic, partial curve]
Cn1nc(C(=O)N2CCN(S(=O)(=O)c3ccc(Cl)cc3)CC2)c2ccccc2c1=O	inactive

Further compounds follow.

SMILES	Potency
COc1cccc(/C=C/C(=O)NNC(=O)CCN2CCN(Cc3ccccc3)CC2)c1	active: 23.1 µM
O=c1oc2ccccc2cc1-c1csc(Nc2nc3c(F)cccc3s2)n1	active: 16.4 µM
Cn1c(=O)[nH]c(=O)c2c1nc(Br)n2CC(O)COc1ccc(Cl)cc1 (stereo unspecified)	inconclusive: 32.6 µM [cytotoxic, single point]
CSc1cccc(N2CC(C(=O)Nc3cccc(S(=O)(=O)N4CCCC4)c3)CC2=O)c1 (stereo unspecified)	inactive
CCc1nc2cc(NC(=O)C3(C)CCCN(C(C)=O)C3)ccc2o1 (stereo unspecified)	inactive
CN(CC(=O)Nc1ccc(F)c(F)c1F)C(=O)CCc1nc2sc3c(c2c(=O)[nH]1)CCCC3	inactive
COc1ccc(CC(=O)Nc2sc3c(c2C(N)=O)CCCC3)cc1OC	inconclusive: 16.4 µM [cytotoxic, single point]
CC(C)C[C@@H](CN1CCC[C@@H]1CN1C(=S)NC[C@@H]1Cc1ccc(O)cc1)N1C[C@H](Cc2ccc(O)cc2)N(CC2CCCCCC2)C1=S	inconclusive: 25.9 µM [cytotoxic, single point]
NC(=S)N/N=C/c1cccc(/C=N/NC(N)=S)c1	inactive
CCCCCC(=O)NNC(=S)NC(=O)c1cccc([N+](=O)[O-])c1	inconclusive: 18.4 µM [cytotoxic, single point]
Cc1ccc(NC(=O)N(Cc2cn(C)c3ccccc23)C2CCCCC2)cc1C	inconclusive: 20.6 µM [cytotoxic, single point]
O=C(NCCc1c[nH]c2ccccc12)C(=O)c1c[nH]c2ccccc12	inconclusive: 25.9 µM [cytotoxic, single point]
COc1ccc(CNC(=O)C2CCN(C(=O)c3csc(Nc4ccc(C)cc4)n3)CC2)cc1	inactive
Nc1n[nH]c(N)c1N=Nc1ccc(Cl)cc1Cl	inconclusive: 32.6 µM [cytotoxic, single point]
O=C(Nc1ccccc1Cl)/C(Cl)=C(\Cl)S(=O)c1ccccc1 (stereo unspecified)	active: 6.51 µM
O=C(C[N+]1(CCO)CCOCC1)c1ccc(F)c2ccccc12	inconclusive: 2.59 µM [cytotoxic, full curve, poor fit]
COc1ccc(N(CC(=O)NCCc2ccccc2)S(=O)(=O)c2ccccc2)c(OC)c1	inactive
CC1(C)CC(=O)C2=C(C1)N(c1ccccc1)C(=O)C(C(=O)OCc1ccccc1)C2 (stereo unspecified)	inconclusive: 18.4 µM [rising, partial curve, poor fit]
Cc1ccc(-n2c(SCC(=O)NCc3ccc(F)cc3)nc3c([nH]c4ccccc43)c2=O)cc1	inactive
O=C(Nc1cccnc1)c1ccc(COc2ccccc2Cl)o1	inconclusive: 29.1 µM [cytotoxic, single point]
COCCNC(=O)C1CCCN(C(=O)c2nc(C)oc2C)CC1 (stereo unspecified)	inactive
O=C(O)COc1ccc(/C=N/NC(=O)c2ccccc2Br)cc1	inconclusive: 1.84 µM [rising, partial curve, poor fit]
COc1ccc(OC)c(CCNC(=O)c2sc3nc4n(c(=O)c3c2C)CCC4)c1	inconclusive: 1.46 µM [rising, full curve]

Exported in markdown: four of the compounds above

| SMILES | Potency |
| --- | --- |
| CC(=O)C[C@@H](O)CC(=O)[C@@H]1OC(=O)[C@H](C)C/C=C\Cc2ccccc21 | inactive |
| Cn1c(=O)[nH]c(=O)c2c1nc(Br)n2CC(O)COc1ccc(Cl)cc1 (stereo unspecified) | inconclusive: 32.6 µM [cytotoxic, single point] |
| COc1ccc(CNC(=O)C2CCN(C(=O)c3csc(Nc4ccc(C)cc4)n3)CC2)cc1 | inactive |
| COc1ccc(OC)c(CCNC(=O)c2sc3nc4n(c(=O)c3c2C)CCC4)c1 | inconclusive: 1.46 µM [rising, full curve] |
